# Paper PMC8096975
# These are yes or no findings as the source states them, for the method shown. Binding seen in cells or lysates may run through a third protein. Some results given as binding are weak or reduced against the parent protein; the word gives no strength. For some of these results: Tags and fused reporters may be left off the sequences shown.
# T1: GIPC2-AcGFP (human) (UniProt Q8TF65)
# T1 sequence: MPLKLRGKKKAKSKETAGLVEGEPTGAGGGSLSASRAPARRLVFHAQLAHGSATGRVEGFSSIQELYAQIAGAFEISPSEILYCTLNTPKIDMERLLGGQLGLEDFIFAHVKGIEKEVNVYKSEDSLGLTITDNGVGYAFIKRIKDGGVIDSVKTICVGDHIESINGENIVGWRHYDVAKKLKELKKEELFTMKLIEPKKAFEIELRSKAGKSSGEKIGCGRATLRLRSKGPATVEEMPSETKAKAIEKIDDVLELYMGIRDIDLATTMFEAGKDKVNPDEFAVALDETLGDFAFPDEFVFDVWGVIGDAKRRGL
# T2: GIPC2-HA (human) (UniProt Q8TF65)
# T2 sequence: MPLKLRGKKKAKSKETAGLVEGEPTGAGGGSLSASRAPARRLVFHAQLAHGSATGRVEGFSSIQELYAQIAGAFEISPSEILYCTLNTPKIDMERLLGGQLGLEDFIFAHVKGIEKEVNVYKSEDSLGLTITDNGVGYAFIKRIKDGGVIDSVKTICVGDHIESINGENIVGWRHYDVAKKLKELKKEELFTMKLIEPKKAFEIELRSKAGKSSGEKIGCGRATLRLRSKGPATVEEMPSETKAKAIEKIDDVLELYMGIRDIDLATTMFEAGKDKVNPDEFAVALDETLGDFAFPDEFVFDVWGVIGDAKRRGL
# T3: GIPC2 (endogenous, hPheo1) (human (endogenous in hPheo1)) (UniProt Q8TF65)
# T3 sequence: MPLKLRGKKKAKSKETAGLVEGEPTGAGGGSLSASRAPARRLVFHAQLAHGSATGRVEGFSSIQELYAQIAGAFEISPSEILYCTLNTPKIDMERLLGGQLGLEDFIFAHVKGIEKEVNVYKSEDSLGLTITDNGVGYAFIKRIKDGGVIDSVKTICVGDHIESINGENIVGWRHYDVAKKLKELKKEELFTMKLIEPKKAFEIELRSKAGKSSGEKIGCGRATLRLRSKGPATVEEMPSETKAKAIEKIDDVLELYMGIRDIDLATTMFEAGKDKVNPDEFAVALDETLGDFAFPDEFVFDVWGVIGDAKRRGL
# T4: GST fused to GIPC2 (human) (UniProt Q8TF65)
# T4 sequence: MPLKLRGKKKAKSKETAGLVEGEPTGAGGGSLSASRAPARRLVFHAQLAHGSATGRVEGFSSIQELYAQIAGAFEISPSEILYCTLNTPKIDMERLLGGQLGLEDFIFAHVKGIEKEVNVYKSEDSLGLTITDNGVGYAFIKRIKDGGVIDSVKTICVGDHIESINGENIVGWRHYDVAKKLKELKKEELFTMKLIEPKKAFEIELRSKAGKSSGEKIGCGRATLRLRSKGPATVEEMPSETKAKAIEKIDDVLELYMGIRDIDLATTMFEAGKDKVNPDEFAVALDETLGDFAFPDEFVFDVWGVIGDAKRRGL
# B1: mcherry-NONO (protein, UniProt Q15233 1-471)
# chain: MQSNKTFNLEKQNHTPRKHHQHHHQQQHHQQQQQQPPPPPIPANGQQASSQNEGLTIDLKNFRKPGEKTFTQRSRLFVGNLPPDITEEEMRKLFEKYGKAGEVFIHKDKGFGFIRLETRTLAEIAKVELDNMPLRGKQLRVRFACHSASLTVRNLPQYVSNELLEEAFSVFGQVERAVVIVDDRGRPSGKGIVEFSGKPAARKALDRCSEGSFLLTTFPRPVTVEPMDQLDDEEGLPEKLVIKNQQFHKEREQPPRFAQPGSFEYEYAMRWKALIEMEKQQQDQVDRNIKEAREKLEMEMEAARHEHQVMLMRQDLMRRQEELRRMEELHNQEVQKRKQLELRQEEERRRREEEMRRQQEEMMRRQQEGFKGTFPDAREQEIRMGQMAMGGAMGINNRGAMPPAPVPAGTPAPPGPATMMPDGTLGLTPPTTERFGQAATMEGIGAIGGTPPAFNRAAPGAEFAPNKRRRY
# B2: His-NONO (protein, UniProt Q15233 1-471)
# chain: MQSNKTFNLEKQNHTPRKHHQHHHQQQHHQQQQQQPPPPPIPANGQQASSQNEGLTIDLKNFRKPGEKTFTQRSRLFVGNLPPDITEEEMRKLFEKYGKAGEVFIHKDKGFGFIRLETRTLAEIAKVELDNMPLRGKQLRVRFACHSASLTVRNLPQYVSNELLEEAFSVFGQVERAVVIVDDRGRPSGKGIVEFSGKPAARKALDRCSEGSFLLTTFPRPVTVEPMDQLDDEEGLPEKLVIKNQQFHKEREQPPRFAQPGSFEYEYAMRWKALIEMEKQQQDQVDRNIKEAREKLEMEMEAARHEHQVMLMRQDLMRRQEELRRMEELHNQEVQKRKQLELRQEEERRRREEEMRRQQEEMMRRQQEGFKGTFPDAREQEIRMGQMAMGGAMGINNRGAMPPAPVPAGTPAPPGPATMMPDGTLGLTPPTTERFGQAATMEGIGAIGGTPPAFNRAAPGAEFAPNKRRRY
# B3: NONO (endogenous, hPheo1) (protein, UniProt Q15233 1-471)
# chain: MQSNKTFNLEKQNHTPRKHHQHHHQQQHHQQQQQQPPPPPIPANGQQASSQNEGLTIDLKNFRKPGEKTFTQRSRLFVGNLPPDITEEEMRKLFEKYGKAGEVFIHKDKGFGFIRLETRTLAEIAKVELDNMPLRGKQLRVRFACHSASLTVRNLPQYVSNELLEEAFSVFGQVERAVVIVDDRGRPSGKGIVEFSGKPAARKALDRCSEGSFLLTTFPRPVTVEPMDQLDDEEGLPEKLVIKNQQFHKEREQPPRFAQPGSFEYEYAMRWKALIEMEKQQQDQVDRNIKEAREKLEMEMEAARHEHQVMLMRQDLMRRQEELRRMEELHNQEVQKRKQLELRQEEERRRREEEMRRQQEEMMRRQQEGFKGTFPDAREQEIRMGQMAMGGAMGINNRGAMPPAPVPAGTPAPPGPATMMPDGTLGLTPPTTERFGQAATMEGIGAIGGTPPAFNRAAPGAEFAPNKRRRY
# B4: NONO (endogenous, 293T) (protein, UniProt Q15233 1-471)
# chain: MQSNKTFNLEKQNHTPRKHHQHHHQQQHHQQQQQQPPPPPIPANGQQASSQNEGLTIDLKNFRKPGEKTFTQRSRLFVGNLPPDITEEEMRKLFEKYGKAGEVFIHKDKGFGFIRLETRTLAEIAKVELDNMPLRGKQLRVRFACHSASLTVRNLPQYVSNELLEEAFSVFGQVERAVVIVDDRGRPSGKGIVEFSGKPAARKALDRCSEGSFLLTTFPRPVTVEPMDQLDDEEGLPEKLVIKNQQFHKEREQPPRFAQPGSFEYEYAMRWKALIEMEKQQQDQVDRNIKEAREKLEMEMEAARHEHQVMLMRQDLMRRQEELRRMEELHNQEVQKRKQLELRQEEERRRREEEMRRQQEEMMRRQQEGFKGTFPDAREQEIRMGQMAMGGAMGINNRGAMPPAPVPAGTPAPPGPATMMPDGTLGLTPPTTERFGQAATMEGIGAIGGTPPAFNRAAPGAEFAPNKRRRY
# What was measured:
# GIPC2-AcGFP (human) = molecular target: T1, GIPC2-AcGFP (human); test: FRET or BRET; FRET in PC12 cells co-transfected with GIPC2-AcGFP and mcherry fusions, 48 h after transfection; percentage of energy transfer efficiency
# GIPC2-HA (human) = molecular target: T2, GIPC2-HA (human); test: co-IP; whole-cell lysates of 293T cells co-transfected with GIPC2-HA and His-NONO; precipitation with Ni-NTA agarose and with anti-GIPC2, immunoblot
# [1] = molecular target: T3, GIPC2 (endogenous, hPheo1) (human (endogenous in hPheo1)); test: co-IP; whole-cell lysates of hPheo1 cells immunoprecipitated with anti-GIPC2 or IgG, immunoblot; endogenous proteins
# [2] = molecular target: T4, GST fused to GIPC2 (human); test: pull-down; bacterially expressed GST fusions on GST-beads incubated with 293T lysates, washed, western blot for NONO; only the target purified
binder,measurement,setting,value
B1,binding,GIPC2-AcGFP (human),binds
B2,binding,GIPC2-HA (human),binds
B3,binding,[1],binds
B4,binding,[2],binds
